Chains of the proteins cited; added tags and fusions are not shown.
UniProt O95863: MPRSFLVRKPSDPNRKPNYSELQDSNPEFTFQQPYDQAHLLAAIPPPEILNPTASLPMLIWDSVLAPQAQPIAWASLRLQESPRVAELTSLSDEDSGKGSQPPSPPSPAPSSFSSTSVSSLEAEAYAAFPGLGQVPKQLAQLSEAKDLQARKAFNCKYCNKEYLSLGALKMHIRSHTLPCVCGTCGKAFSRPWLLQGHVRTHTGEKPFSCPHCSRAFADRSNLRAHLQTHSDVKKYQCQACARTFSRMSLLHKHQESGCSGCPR
UniProt Q96KQ7: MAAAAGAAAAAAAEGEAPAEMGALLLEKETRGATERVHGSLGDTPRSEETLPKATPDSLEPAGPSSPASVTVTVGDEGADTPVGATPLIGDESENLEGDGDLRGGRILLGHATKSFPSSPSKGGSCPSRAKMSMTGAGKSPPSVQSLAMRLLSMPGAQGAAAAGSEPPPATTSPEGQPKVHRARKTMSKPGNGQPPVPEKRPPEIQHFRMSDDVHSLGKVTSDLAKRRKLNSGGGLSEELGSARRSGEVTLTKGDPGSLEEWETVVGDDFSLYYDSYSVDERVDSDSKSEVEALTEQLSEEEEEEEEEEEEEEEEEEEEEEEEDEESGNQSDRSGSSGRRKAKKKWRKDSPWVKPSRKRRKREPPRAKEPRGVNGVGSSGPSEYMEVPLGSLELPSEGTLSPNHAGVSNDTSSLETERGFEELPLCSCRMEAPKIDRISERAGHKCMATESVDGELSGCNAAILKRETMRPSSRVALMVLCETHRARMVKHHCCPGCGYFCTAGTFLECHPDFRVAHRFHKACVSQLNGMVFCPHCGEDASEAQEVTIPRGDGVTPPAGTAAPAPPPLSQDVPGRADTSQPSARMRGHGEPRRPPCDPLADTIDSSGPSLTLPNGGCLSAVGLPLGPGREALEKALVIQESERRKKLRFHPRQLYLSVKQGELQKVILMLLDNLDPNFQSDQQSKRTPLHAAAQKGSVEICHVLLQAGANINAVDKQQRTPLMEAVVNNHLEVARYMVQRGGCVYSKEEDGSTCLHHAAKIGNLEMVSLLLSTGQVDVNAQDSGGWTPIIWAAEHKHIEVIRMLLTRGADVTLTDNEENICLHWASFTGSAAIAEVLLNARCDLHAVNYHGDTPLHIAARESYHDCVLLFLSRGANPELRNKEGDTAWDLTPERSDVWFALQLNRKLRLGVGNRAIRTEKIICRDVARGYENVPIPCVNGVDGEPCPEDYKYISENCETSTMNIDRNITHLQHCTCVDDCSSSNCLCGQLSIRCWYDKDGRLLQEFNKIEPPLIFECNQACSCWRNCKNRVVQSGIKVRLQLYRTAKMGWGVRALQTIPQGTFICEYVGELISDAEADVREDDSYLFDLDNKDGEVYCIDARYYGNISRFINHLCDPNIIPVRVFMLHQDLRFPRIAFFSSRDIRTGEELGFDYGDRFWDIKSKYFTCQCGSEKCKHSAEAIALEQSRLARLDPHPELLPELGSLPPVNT

According to article PMC5316870:

B1: Suv39H1 (protein, UniProt O43463 1-412)
chain: MAENLKGCSVCCKSSWNQLQDLCRLAKLSCPALGISKRNLYDFEVEYLCDYKKIREQEYYLVKWRGYPDSESTWEPRQNLKCVRILKQFHKDLERELLRRHHRSKTPRHLDPSLANYLVQKAKQRRALRRWEQELNAKRSHLGRITVENEVDLDGPPRAFVYINEYRVGEGITLNQVAVGCECQDCLWAPTGGCCPGASLHKFAYNDQGQVRLRAGLPIYECNSRCRCGYDCPNRVVQKGIRYDLCIFRTDDGRGWGVRTLEKIRKNSFVMEYVGEIITSEEAERRGQIYDRQGATYLFDLDYVEDVYTVDAAYYGNISHFVNHSCDPNLQVYNVFIDNLDERLPRIAFFATRTIRAGEELTFDYNMQVDPVDMESTRMDSNFGLAGLPGSPKKRVRIECKCGTESCRKYLF
B2: Dub3 (endogenous, HeLa S3) (enzyme, UniProt Q6R6M4 1-530)
chain: MEDDSLYLGGEWQFNHFSKLTSSRPDAAFAEIQRTSLPEKSPLSSEARVDLCDDLAPVARQLAPRKKLPLSSRRPAAVGAGLQNMGNTCYENASLQCLTYTPPLANYMLSREHSQTCQRPKCCMLCTMQAHITWALHSPGHVIQPSQALAAGFHRGKQEDAHEFLMFTVDAMKKACLPGHKQVDHHSKDTTLIHQIFGGCWRSQIKCLHCHGISDTFDPYLDIALDIQAAQSVKQALEQLVKPEELNGENAYHCGLCLQRAPASKTLTLHTSAKVLILVLKRFSDVTGNKLAKNVQYPECLDMQPYMSQQNTGPLVYVLYAVLVHAGWSCHDGHYFSYVKAQEGQWYKMDDAKVTACSITSVLSQQAYVLFYIQKSEWERHSESVSRGREPRALGAEDTDRRATQGELKRDHPCLQAPELDERLVERATQESTLDHWKFPQEQNKTKPEFNVRKVEGTLPPNVLVIHQSKYKCGMKNHHPEQQSSLLNLSSTTRTDQESVNTGTLASLQGRTRRSKGKNKHSKRALLVCQ

molecular target: Flag-Snail1 (expressed in HeLa S3 cells) (UniProt O95863); test: affinity purification with mass spectrometry; Snail1 complexes purified from nuclear extracts of 20 l HeLa S3 cells expressing Flag-Snail1; immunocomplex separated on SDS-PAGE, mass spectrometry

| Molecule | binding |
| --- | --- |
| G9a (from UniProt Q96KQ7 1-1210) | binds |
| B1 | binds |
| B2 | binds |

These are yes or no findings as the source states them, for the method shown. In cells and extracts the contact can be indirect. These calls come from enrichment with a bait or labelling near it, and not all partners need be listed.
